Measured values taken from US20240350647A1, “STING SENSITIZING AGENTS” (STipe Therapeutics ApS, priority 2023, published 2024).
At least one peptide structure holds a part that was inferred or is arguable (an end, a ring closure or a residue). For at least one compound, name, drawing or mass did not settle the structure. Where a SMILES comes first, the peptide text is derived from it. Bridges are numbered along the chain shown (N, C = ends). [ ]: non-standard residue; d: D form. The star is where a group is joined. C16 diacid = O=C(O)CCCCCCCCCCCCCCC(=O)*; AEEA = NCCOCCOCC(=O)O

Assays:
[1] = system: STING; assay: Western blot of STING phosphorylation in THP-1 cells after 2′3′-cGAMP stimulation and Agent 1 sensitization; format: cell-based, human; settings: undifferentiated and PMA-differentiated THP-1 cells; 2′3′-cGAMP in combination with Agent 1 (5 μM) vs 2′3′-cGAMP only
[2] = system: CXCL10; assay: Stimulation and sensitization assay in THP1 cells, CXCL10 release (ELISA); format: cell-based, human
[3] = system: STING; assay: ImageStream colocalization of STING-ER and STING-Golgi in PMA-differentiated THP-1 cells; format: cell-based, human
[4] = system: MC38 tumours; assay: MC38 subcutaneous syngeneic tumour model, Agent 1 IV with suboptimal ADU-S100 IT; format: in vivo, mouse; settings: Agent 1 i.v. + suboptimal ADU-S100 i.t.
[5] = system: CT26.WT; assay: CT26.WT syngeneic mouse model, Agent 1 IV and anti-PD1 IP; format: in vivo; settings: for TGI value: day 11
[6] = system: TBK1; assay: Western blot of TBK1 phosphorylation in THP-1 cells after 2′3′-cGAMP stimulation and Agent 1 sensitization; format: cell-based, human; settings: undifferentiated and PMA-differentiated THP-1 cells; 2′3′-cGAMP in combination with Agent 1 (5 μM) vs 2′3′-cGAMP only
[7] = system: MC38 tumours; assay: MC38 subcutaneous syngeneic tumour model, Agent 1 single agent IV; format: in vivo, mouse; settings: evaluated up to day 14
[8] = system: IFN-β; assay: Stimulation and sensitization assay in THP1 cells, IFN-β release (ELISA); format: cell-based, human
Method: THP1 cells were purchased from ATCC (TIB-202™) and cultured in RPMI 1640 supplemented with 10% FBS and 1% Penicillin/Streptomycin (P/S) at 37° C. and 5% CO2. Passaging of THP1 cells was kept below 20 passages.
ADU-S100 was dissolved according to manufacturer's protocol (tlrl-nacda2r) to 0.5 mg/mL in LAL and subsequently diluted in R10. diABZI Compound 3 was diluted from a 1 mM stock in 100% DMSO into R10. Agent 1 was dissolved to a stock solution of 1250 μM in 50% DMSO, 25 mM HEPES. Concentration of dissolved Agent 1 was determined by A280 measurement using Synergy HI (Biotek Gen5 SW). Subsequently, Agent 1 dilutions were prepared in RPMI 1640, 10% FBS, 1% P/S (R10).
Concentrations of CXCL10 and IFN-β in the collected supernatants were determined by Duo-Set ELISA from R&D. Absorbance measurements at 450/570 nm and quantification were done using Synergy HI plate reader (Biotek Gen5 SW), Microsoft Excel and GraphPad prism v. 9.3.1.
Data analysis and statistical analysis were done using GraphPad prism 9.3.1. […]
Dip: is the plateau in the middle of the curve, corresponding to EMax, same unite as y-axis. The EMax determined here are not derived from this regression, due to the limitations using bell shaped dose response. Instead, EMax-values were determined as the maximum response at any given STING agonist concentration for both IFN-β and CXCL10 from all experiments. […]

[9] = 2 μM Agent 1 added to 2′3′-cGAMP, ADU-S100 or diABZI C3

`CC[C@H](C)[C@H](NC(=O)[C@H](CC(N)=O)NC(=O)[C@H](CCCCN)NC(=O)[C@H](C)NC(=O)[C@H](CCCCN)NC(=O)[C@H](CCCCN)NC(=O)COCCOCCNC(=O)COCCOCCNC(=O)CCCCCCCCCCCCCCC(=O)O)C(=O)N[C@H](C(=O)N[C@@H](CC(C)C)C(=O)N[C@@H](CC(C)C)C(=O)N[C@@H](CCCCN)C(=O)NCC(=O)N[C@@H](CC(C)C)C(=O)N[C@@H](CCC(=O)O)C(=O)N[C@H](C(=O)N[C@H](C(=O)N[C@@H](CC(N)=O)C(=O)N[C@@H](CC(=O)O)C(=O)N[C@@H](Cc1c[nH]c2ccccc12)C(=O)N[C@@H](Cc1c[nH]cn1)C(=O)N[C@@H](Cc1ccccc1)C(=O)N[C@H]1CSSC[C@@H](C(N)=O)NC(=O)[C@@H](CCCNC(=N)N)NC(=O)[C@H](CCCNC(=N)N)NC(=O)[C@@H](CCCCN)NC(=O)[C@H](CCCCN)NC(=O)[C@@H](CCCNC(=N)N)NC(=O)CNC(=O)[C@@H](CCCNC(=N)N)NC(=O)[C@H](CCCNC(=N)N)NC(=O)[C@@H](CCCNC(=N)N)NC1=O)[C@@H](C)CC)C(C)C)C(C)C` [Agent 1] ({C16 diacid-AEEA-AEEA}-KKAKNIVLLKGLEVINDWHFC[dR]R[dR]G[dR]K[dK]R[dR]C-NH2; disulfide 21-31) was tested, and the phospho-STING [1] was “increase”, the “CXCL10 EMax induced by STING agonists” value [2, 9] was “significantly increased” and the “EC50 of the different STING agonists when assessing CXCL10 production” value ([2]; addition of 2 μM Agent 1, bell-shaped dose response) was “reduced”. For the same compound, the “STING trafficking from the ER to Golgi” value ([3]; 6 μM Agent 1 + 50 μg/mL cGAMP vs cGAMP single agent, all tested time points (10, 30, 60, 120 min)) was “significantly increases”, the “STING residing in ER” value ([3]; 6 μM Agent 1 + 50 μg/mL cGAMP, 60 and 120 min) was “significantly reduced” and the “STING trafficking to Golgi” value ([3]; single agent Agent 1 6 μM, no cGAMP, tested timepoints) was “did not induce”. For the same compound, the “animals clearing the tumour burden vs both monotherapies” value [4] was “more animals in clearing the tumour burden”, the “effect on tumour growth of combination vs both monotherapies” value [4] was “synergistic effect” and the “anti-tumour efficacy against CT26.WT model” value ([5]; co-administration of anti-PD1 (0.2 mg/mouse) and Agent 1 (10 mg/kg), P<0.01 vs vehicle) was “significant anti-tumour efficacy”. The TGI value ([5]; co-administration of anti-PD1 (0.2 mg/mouse) and Agent 1 (10 mg/kg)) was 46.98%, the TGI value ([5]; single agent (Agent 1 10 mg/kg IV; anti-PD1 0.2 mg/mouse IP)) was 21.09% and the “anti-tumour efficacy against CT26.WT model” value ([5]; single agent (Agent 1 10 mg/kg IV; anti-PD1 0.2 mg/mouse IP), not significant vs control) was “slight anti-tumour efficacy”. For the same compound, the phospho-TBK1 [6] was “increase”, the “antitumour activity against vehicle control” value ([7]; 10 mg/kg i.v. Q3D × 4) was “significant antitumour activity” and the “antitumour activity against vehicle control” value ([7]; 20 mg/kg i.v. Q3D × 4) was “significant antitumour activity”. The “Agent 1-dependent change in the EMax for the IFN-β response” value [8, 9] was “not observed” and the “improvement in EC50 for type I IFN production of diABZI C3” value ([8]; with vs without 2 μM Agent 1) was “no significant improvement”.
